The list shows a part of the results. The main result of the screen is listed elsewhere. These columns were measured beside it and carry no call. Most of these compounds were active or inconclusive in the main read-out, so they are no random draw. The note in brackets gives the kind of curve behind each potency; many fits are weak.
Assay: qHTS Assay for Lipid Storage Modulators in Drosophila S3 Cells;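 on cell number change: cells counted by Cell Tracker Red CMTPX staining in the red channel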
Conditions: BODIPY lipid droplet fluorescence, 18-24 h; for cell number change: measured here: cell count max response, cells fed with added oleic acid
Outline: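 Laser-scanning cytometry quantifies lipid droplet accumulation (500–530 nm total intensity; droplet/cell object ratio) in oleic acid-fed (400 uM added) Drosophila S3 cells treated with a concentration series. 20 uM Triacsin C defined 100% inhibition.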

[1] = measured here: lipid fluorescence (Fed channel) AC50, cells fed with added oleic acid
[2] = measured here: cell number channel AC50, cells fed with added oleic acid

Row | SMILES | AC50 [1] | cell number change [%] | AC50 [2]
1 | O=C(C[n+]1cc(-c2ccc(F)cc2)n2c1CCC2)Nc1nc(-c2ccc(F)cc2)cs1 | 0.291 µM [rising, full curve] |  | 
2 | Cc1cccc(N(CC(=O)N2CCOCC2)S(C)(=O)=O)c1C | 23.1 µM [falling, partial curve, poor fit] | -32.2 | 0.58 µM [falling, full curve]
3 | Cc1ccc(-n2ncc3c(SCC(=O)NNC(=O)C(C)C)ncnc32)cc1 | 0.13 µM [falling, full curve, poor fit] | 22.4 | 
4 | CC1CCCN(S(=O)(=O)c2ccc(-c3ccc(=O)[nH]n3)o2)C1 (stereo unspecified) |  | 14.5 | 
5 | CC(C)NC(=O)CN1C(=O)c2ccccc2S1(=O)=O | 25.9 µM [rising, partial curve] | 28.3 | 
6 | COc1ccccc1N1CCN(C(=O)C2CCN(S(=O)(=O)c3ccccc3F)CC2)CC1 | 0.092 µM [falling, full curve, poor fit] | -29.2 | 
7 | CC(C)c1cc(C(=O)Nc2cc(Br)ccc2O)no1 | 25.9 µM [falling, partial curve] | -0.369 | 
8 | CC(=O)c1cn(CC(=O)Nc2ccccc2)c2ccccc12 |  | 3.02 | 
9 | CCOc1ccc(NC(=O)N2CCCC2C(=O)NCC2CCCO2)cc1 (stereo unspecified) | 0.13 µM [rising, full curve, poor fit] | 27.9 | 
10 | O=C(O)c1cccc(Nc2nc(-c3cccnc3)nc3ccccc23)c1 | 4.61 µM [rising, partial curve] |  | 
11 | CCOC(=O)N1CCN(c2nc(N(c3ccccc3)c3ccccc3)nc(-n3ccnc3)n2)CC1 |  | 19.5 | 
12 | Cc1ccccc1NC(=O)NCCN1C(=O)C2C3C=CC(C3)C2C1=O (stereo unspecified) | 0.00517 µM [rising, full curve, poor fit] | -36.4 | 11.6 µM [falling, single point]
13 | Cc1ccc(-c2nc3sc(C#N)c(N)n3c(=O)c2C#N)cc1 |  | 24.2 | 
14 | COc1ccccc1NC(=O)CN1C(=O)COc2ccc(C)cc21 | 4.61 µM [rising, full curve, poor fit] | -0.895 | 
15 | COc1cccc(NC(=O)C(=O)NCC2CCCN2S(=O)(=O)c2ccccc2)c1 (stereo unspecified) |  |  | 2.31 µM [rising, partial curve, poor fit]
16 | CCc1ccc(NC(=S)Nc2ccc3cn[nH]c3c2)cc1 | 3.66 µM [rising, full curve] | 13.2 | 
17 | Cc1cc(C)c(NC(=O)c2ccoc2C)c(C)c1 | 0.92 µM [rising, partial curve] |  | 0.231 µM [rising, partial curve]
18 | O=C1CSC(c2cccc([N+](=O)[O-])c2)N1CCN1CCCCC1 (stereo unspecified) |  | -4.64 | 
19 | COc1ccc(Cn2nnc3c(C)n[nH]c(=O)c32)cc1 | 5.8 µM [falling, full curve] | -18.4 | 
20 | Cc1noc(C)c1S(=O)(=O)N1CCCN(C(=O)/C=C/c2ccccc2F)CC1 | 4.11 µM [falling, single point] | -30.1 | 23.1 µM [falling, partial curve]

Row | SMILES | AC50 [1] | cell number change [%] | AC50 [2]
21 | Cc1cccc(C)c1-n1nnnc1SCSc1nnnn1-c1c(C)cccc1C | 6.51 µM [rising, partial curve, poor fit] |  | 
22 | CCCCOC(=O)Nc1ccc(C(=O)OC)cc1 | 0.82 µM [rising, full curve, poor fit] | 0.898 | 
23 | Cn1c(=O)n(Cc2ccccc2F)c2ccccc21 |  | -15.2 | 3.66 µM [falling, single point]
24 | Cc1cccc(-c2nsc(SCC(=O)NCC3CCCO3)n2)c1 (stereo unspecified) |  | 1.8 | 
25 | COc1ccc(CC(=O)Nc2cccc(-c3nnc(-c4ccccc4)o3)c2)cc1OC | 0.146 µM [rising, full curve, poor fit] |  | 0.103 µM [rising, full curve, poor fit]
26 | CC(C)n1ncc2c(C(=O)Nc3ccc(S(N)(=O)=O)cc3)cc(C3CC3)nc21 | 6.51 µM [rising, single point] | 16.5 | 
27 | O=C(Nc1ccc(O)cc1)c1cc2n(n1)C(C(F)(F)F)CC(c1ccco1)N2 (stereo unspecified) |  | -34.1 | 23.1 µM [falling, single point]
28 | O=C(O)c1ccc(CNCc2ccc(Cl)cc2Cl)cc1 | 3.26 µM [falling, full curve] | -24 | 3.26 µM [falling, single point]
29 | COc1ccc(CNC(=O)C2CCN(c3nccs3)CC2)cc1 | 4.11 µM [falling, partial curve, poor fit] | 1.03 | 
30 | CC(=O)c1ccc(N2CCN(C(=O)Nc3cccc(F)c3)CC2)cc1 |  | 111 | 
31 | COCCCNC(=S)N(Cc1ccccc1)Cc1ccc(F)cc1 |  | 4.4 | 
32 | CCOC(=O)c1c(CSc2ccsc2)n(C)c2cc(Br)c(O)c(CN(C)C)c12 | 0.00461 µM [falling, full curve, poor fit] | -0.12 | 
33 | Cc1c(CNC(=O)c2nn3c(c2Cl)NC(c2ccccc2)CC3C(F)(F)F)cnn1C (stereo unspecified) | 0.00411 µM [rising, full curve, poor fit] | -19 | 
34 | COCCNC(=O)c1ccccc1NC(=O)CN(c1ccc2c(c1)OCO2)S(C)(=O)=O | 6.51 µM [rising, partial curve] |  | 2.06 µM [rising, partial curve]
35 | O=C(Nc1ccc2c(c1)OCO2)c1ccc2nc[nH]c2c1 |  |  | 0.092 µM [rising, full curve, poor fit]
36 | CCCN(CCC)S(=O)(=O)c1ccc(C(=O)Nc2nnc(-c3cccc(OC)c3)o2)cc1 | 4.61 µM [rising, partial curve] | 35.7 | 4.11 µM [rising, partial curve]
37 | CC1(C)CC(=O)C2=C(C1)Nc1nc(SCCN3CCOCC3)[nH]c(=O)c1C2c1cccs1 (stereo unspecified) | 0.731 µM [falling, full curve] | 8.91 | 
38 | O=[N+]([O-])c1ccc2[nH]c(O)c(N=NC3CCS(=O)(=O)C3)c2c1 (stereo unspecified) | 7.31 µM [rising, partial curve] | 14.2 | 
39 | Cc1ccc(C)c(NC(=O)C2CCC(C)(C(=O)O)C2(C)C)c1 (stereo unspecified) | 0.58 µM [falling, partial curve, poor fit] | 9.5 | 1.03 µM [falling, full curve]
40 | CN1C(C(=O)NCc2ccc(OC(F)(F)F)cc2)CC2Cn3c(nc4cc5ccccc5cc43)C21 (stereo unspecified) | 7.31 µM [rising, partial curve] | 8.58 | 

Row | SMILES | AC50 [1] | cell number change [%] | AC50 [2]
41 | c1ccc2c(c1)CCc1c(-c3ccncc3)n[nH]c1-2 | 29.1 µM [falling, partial curve, poor fit] |  | 
42 | CCN1C(=O)[C@H]2[C@@H](c3ccc(-c4ccccc4)cc3)N3CCC[C@@]3(C(=O)OC)[C@H]2C1=O |  | -3.3 | 0.461 µM [falling, partial curve, poor fit]
43 | Cc1ccc2nc(N/C(N)=N/S(=O)(=O)c3ccc([N+](=O)[O-])cc3)nc(C)c2c1 | 16.4 µM [rising, single point] | 17 | 
44 | COc1ccc(C(=O)N=c2sccn2C)cc1 |  | 3.65 | 
45 | Cc1cccc(C)c1N1CCN(c2ccc3nnc(C(F)(F)F)n3n2)CC1 |  | -0.34 | 
46 | CNC(=O)COc1ccc(-c2nn(C)c(=O)c3ccccc23)cc1 | 0.731 µM [rising, single point] |  | 3.66 µM [rising, partial curve, poor fit]
47 | CCC(=O)N1CCc2cc(OC)c(OC)cc2C1COc1ccc(C(=O)OC)cc1 (stereo unspecified) | 4.11 µM [rising, partial curve] |  | 6.51 µM [rising, single point]
48 | CCOC(=O)C1=C(C)NC(C)=C(C(=O)OCC)C1C(=O)OCC(N)=O | 29.1 µM [rising, single point] | 51.2 | 0.13 µM [rising, full curve, poor fit]
49 | CCCc1ccc(NC(=O)C2CCN(c3cnccn3)CC2)cc1 | 5.17 µM [rising, single point] |  | 4.11 µM [rising, partial curve]
50 | Cc1ccc(C(=O)NC2CCN(C(=O)Nc3ccccc3Cl)CC2)cc1 | 29.1 µM [rising, single point] | 3.85 | 
51 | COc1ccc(/C=N/NC(=O)CSc2ccccc2)cc1OC | 1.84 µM [rising, full curve] | 44.1 | 2.59 µM [rising, partial curve]
52 | Cc1ccc(NC(=O)CCNS(=O)(=O)c2ccc3c(c2)CCC(=O)N3)cc1C | 6.51 µM [rising, single point] | -11.8 | 
53 | Cc1cccc(C(=O)OCC(=O)N2CC(C)OC(C)C2)c1C (stereo unspecified) | 0.0651 µM [falling, full curve, poor fit] | 7.69 | 
54 | CCCOc1ccc(C(=O)C(CN2CCCC2)c2ccccc2)cc1 (stereo unspecified) | 23.1 µM [falling, partial curve] | -36.3 | 32.6 µM [falling, single point]
55 | O=C(O)CCN1c2ccccc2Sc2ccccc21 | 23.1 µM [falling, single point] | -52.3 | 20.6 µM [falling, single point]
56 | CC(=O)NC(CC(=O)NCC(c1ccco1)N(C)C)c1ccccc1 (stereo unspecified) | 0.82 µM [falling, single point] | -8.85 | 
57 | COc1cccc(C(=O)Nc2cc(C(=O)NCCc3ccccc3)ccc2Cl)c1 | 6.51 µM [rising, single point] | 52.8 | 1.16 µM [rising, full curve, poor fit]
58 | CSCCC(NS(=O)(=O)c1ccc(Cl)cc1)C(=O)O (stereo unspecified) |  | -33.8 | 0.82 µM [falling, full curve, poor fit]

In another format: results already given.
Row,SMILES,AC50 [1],cell number change [%],AC50 [2]
9,CCOc1ccc(NC(=O)N2CCCC2C(=O)NCC2CCCO2)cc1 (stereo unspecified),"0.13 µM [rising, full curve, poor fit]",27.9,
29,COc1ccc(CNC(=O)C2CCN(c3nccs3)CC2)cc1,"4.11 µM [falling, partial curve, poor fit]",1.03,

Source: PubChem BioAssay AID2685 (National Center for Advancing Translational Sciences (NCATS), 2010)
